Here are results for 2 substances from publication PMC3978064.

Protein sequences, listed by entry. Tags and fused reporters are not part of them.
UniProt P12814: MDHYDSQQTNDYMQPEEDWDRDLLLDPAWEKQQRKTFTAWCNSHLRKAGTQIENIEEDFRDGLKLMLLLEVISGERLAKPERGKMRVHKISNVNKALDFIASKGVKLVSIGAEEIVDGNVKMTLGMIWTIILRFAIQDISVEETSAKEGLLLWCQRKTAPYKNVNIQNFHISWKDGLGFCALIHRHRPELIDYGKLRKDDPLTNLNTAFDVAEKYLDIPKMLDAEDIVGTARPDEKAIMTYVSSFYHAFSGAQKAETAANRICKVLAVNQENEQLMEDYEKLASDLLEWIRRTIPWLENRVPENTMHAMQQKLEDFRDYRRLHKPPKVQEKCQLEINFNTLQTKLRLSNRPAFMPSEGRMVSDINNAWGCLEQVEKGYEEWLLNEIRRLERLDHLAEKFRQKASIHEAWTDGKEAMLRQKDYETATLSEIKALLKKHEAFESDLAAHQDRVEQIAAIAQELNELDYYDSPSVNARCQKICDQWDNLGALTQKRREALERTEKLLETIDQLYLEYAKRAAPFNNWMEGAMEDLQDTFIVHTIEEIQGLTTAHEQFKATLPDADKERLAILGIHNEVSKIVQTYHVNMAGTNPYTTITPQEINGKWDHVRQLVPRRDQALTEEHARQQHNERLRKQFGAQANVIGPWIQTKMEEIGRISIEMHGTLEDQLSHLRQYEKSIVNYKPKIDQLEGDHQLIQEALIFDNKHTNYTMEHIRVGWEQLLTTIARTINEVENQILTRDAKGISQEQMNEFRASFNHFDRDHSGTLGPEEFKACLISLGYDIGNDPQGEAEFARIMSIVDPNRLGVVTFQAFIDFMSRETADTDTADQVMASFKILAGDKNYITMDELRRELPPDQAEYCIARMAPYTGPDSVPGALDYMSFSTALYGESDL

The assay addresses T1, recombinant analogue of lactaptin RL2 (human) (UniProt P07498).
T1 sequence: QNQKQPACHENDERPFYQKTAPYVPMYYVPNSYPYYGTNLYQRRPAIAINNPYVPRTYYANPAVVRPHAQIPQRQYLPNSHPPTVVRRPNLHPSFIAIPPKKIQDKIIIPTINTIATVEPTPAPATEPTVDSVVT
Kind of assay: affinity purification with mass spectrometry; RL2 covalently immobilised on CH-Sepharose 4B (3 mg per mL); MCF-7 lysate in TBS (50 mM Tris pH 8.0, 150 mM NaCl) with 1% Triton X-100; washed with TBS; unique bands only in the fraction eluted by 300 mM NaCl, 20 mM Tris-HCl pH 7.5; control on non-modified Sepharose; bands cut from SDS-PAGE and identified by MALDI-TOF MS; only the target purified.

Results are given in words; binding and its absence hold for the method and conditions named. In cells and extracts the contact can be indirect. A yes stands for co-enrichment or nearness to the bait. Other partners may have been found.

As for α/β-tubulin (human) (complex), the binding entry is listed as “binds”. Then α-actinin-1 (from UniProt P12814 1-892), with “binds”.
